Assay results from article PMC5996148.
This is one part of the list. For some of these results: Construct or isoform of the protein are uncertain.

Columns and labels:
Assay in all cases: protein microarray (ProtoArray v5.0), streptavidin-Alexa Fluor 647
Details in all cases: 3'-biotin; 20 mM Tris (pH 7.5), 5 mM MgCl2, 100 mM KCl, 0.1% Tween-20, A/T-rich and random oligonucleotide blockers; temperature not stated; high values mean tight binding
ROM1 (human) = test system: ROM1 (human)
RP11-49G10.8 (human) = test system: RP11-49G10.8 (human)
RPA2 (human) = test system: RPA2 (human)
RPL35 = RPL35 (UniProt P42766)
RPLP2 (human) = test system: RPLP2 (human)
RPS20 = RPS20 (UniProt P60866)
RRN3 (human) = test system: RRN3 (human)
RSBN1L = RSBN1L (UniProt Q6PCB5)
RTN1 = target: T1, RTN1 (UniProt Q16799)
T1 sequence: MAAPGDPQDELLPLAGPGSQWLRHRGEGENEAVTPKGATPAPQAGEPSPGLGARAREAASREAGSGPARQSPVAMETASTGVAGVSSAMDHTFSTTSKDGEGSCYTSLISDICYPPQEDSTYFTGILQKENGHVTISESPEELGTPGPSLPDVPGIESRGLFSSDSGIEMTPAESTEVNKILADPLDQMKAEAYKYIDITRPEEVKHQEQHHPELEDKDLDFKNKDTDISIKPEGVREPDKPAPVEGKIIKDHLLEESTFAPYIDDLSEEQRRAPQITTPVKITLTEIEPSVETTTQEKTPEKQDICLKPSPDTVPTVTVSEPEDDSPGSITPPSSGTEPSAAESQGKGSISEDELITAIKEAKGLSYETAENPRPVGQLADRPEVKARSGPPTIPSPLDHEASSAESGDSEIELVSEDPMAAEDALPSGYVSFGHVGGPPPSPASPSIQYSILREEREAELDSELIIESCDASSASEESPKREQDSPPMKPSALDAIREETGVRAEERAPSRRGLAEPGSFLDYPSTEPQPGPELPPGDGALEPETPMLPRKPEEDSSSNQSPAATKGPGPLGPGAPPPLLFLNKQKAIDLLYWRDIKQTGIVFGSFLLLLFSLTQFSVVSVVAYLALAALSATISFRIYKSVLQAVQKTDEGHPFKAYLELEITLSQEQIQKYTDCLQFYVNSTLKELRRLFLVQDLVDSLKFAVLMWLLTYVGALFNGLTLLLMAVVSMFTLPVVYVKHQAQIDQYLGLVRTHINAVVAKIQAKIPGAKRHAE

RTN4 (human) = test system: RTN4 (human)

Sequence: GGGGACAGGGGTATGGGGAGGGG [G4-3 biotinylated (CtG)]
- binding signal (ROM1 (human)): -0.299 z-score
- binding signal (RP11-49G10.8 (human)): -0.324 z-score
- binding signal (RPA2 (human)): -0.328 z-score
- binding signal (RPL35): 3.25 z-score
- binding signal (RPLP2 (human)): -0.338 z-score
- binding signal (RPS20): 3.31 z-score
- binding signal (RRN3 (human)): -0.323 z-score
- binding signal (RSBN1L): 4.53 z-score
- binding signal (RTN1): -0.321 z-score
- binding signal (RTN4 (human)): -0.318 z-score
